For one compound, IC50 results are on record in ChEMBL document CHEMBL5030546, “Synthesis of thiocolchicine amine derivatives and evaluation of their antiproliferative activity” (Bioorg Med Chem Lett, 2021).

Broadly, the IC50 is the concentration at which inhibition is half-maximal.

One assay concerns A549. Nature of the assay: cells. The format is functional, cell-based. As to conditions: Homo sapiens, A549, 72 h.
A further assay relates to MCF7. Nature of the assay: cells. It counts as functional, cell-based. As to conditions: Homo sapiens, MCF7, 72 h.
A further assay concerns LoVo. Nature of the assay: cells. It counts as functional, cell-based. The settings on record: Homo sapiens, 72 h.
A further assay in a line: cells. The format is functional, cell-based. As to conditions: Homo sapiens, LoVo/DX, 72 h.
For a further assay, the system named is BALB/3T3. Nature of the assay: Cytotoxicity against mouse BALB/3T3 cells assessed as reduction in cell viability incubated for 72 hrs by SRB assay. The format is ADME, cell-based. The settings on record: BALB/3T3, 72 h.

For `COc1cc2c(c(OC)c1OC)-c1ccc(SC)c(=O)cc1[C@@H](N)CC2`, the IC50 in the assay on A549 stood at 11 nM; in the assay with MCF7, 9.5 nM; in the assay on LoVo it was 10.3 nM; in “cells”, 77.8 nM; in the assay with BALB/3T3 it was 15.4 nM.
